According to PubChem BioAssay AID1487 (National Center for Advancing Translational Sciences (NCATS), 2009):
Where “and” joins values, the source holds several entries; their conditions need not be identical. Identical values can stand only once. Some of the results follow. Shown are side measurements of this screen, not its main read-out; they come without a call. Most of these compounds were active or inconclusive in the main read-out, so they are no random draw. Words in brackets tell the shape of the fitted curve; partial curves, single points and poor fits give uncertain potencies.

Experiment: qHTS Assay for Modulators of Lamin A Splicing
Settings: HeLa LMNA splicing GFP/RFP minigene ratio, 48 h
Method in brief: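 S3 HeLa stable clones carrying a lamin A-EGFP splicing minigene plus DsRed2 were seeded at 600 cells/well in Opti-MEM with 2% FBS, pin-dosed and incubated 48 h at 37°C. Acumen cytometry (488 nm) gave the GFP/RFP total-intensity ratio.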

[1] = measured here: RFP viability control channel
[2] = measured here: GFP splicing reporter channel

Row | SMILES | AC50 [1] | AC50 [2]
1 | CCn1c(CNc2ccc(Cl)cc2)nnc1SCc1ccc(Cl)cc1 | 35.5 µM [rising, single point] | 
2 | COc1cccc(C(=O)Nc2cccc(C(=O)OCc3cc(=O)n4nc(C(C)C)sc4n3)c2)c1 | 0.0355 µM [falling, full curve, poor fit] | 0.0794 µM [falling, full curve, poor fit]
3 | CC(C)C(C(=O)Nc1nccs1)c1ccc(Cl)cc1 (centres undefined) | 11.2 µM [rising, partial curve, poor fit] | 
4 | CCCC(CCC)C(=O)Nc1ccc2c(c1)N(C(=O)CCN1CCN(C)CC1)c1ccccc1CC2 |  | 0.447 µM [falling, single point]
5 | CCn1c2ccccc2c2cc(NC(=O)c3ccc(C)c([N+](=O)[O-])c3)ccc21 | 11.2 µM [rising, partial curve] | 11.2 µM [rising, single point]
6 | c1ccc2c3c([nH]c2c1)-c1[nH]ncc1CC3 | 5.62 µM [rising, partial curve, poor fit] | 
7 | CCn1c(CSc2nc3ccccc3s2)nnc1SCC(=O)OC(C)(C)C | 31.6 µM [rising, single point] | 
8 | CC1CN=C2C(C(=O)Nc3ccccc3)=C(O)CC(c3ccccc3)N21 (centres undefined) | 35.5 µM [falling, single point] | 
9 | CC(C)Cc1csc(NC(=O)c2ccc(F)cc2)c1C(=O)O | 35.5 µM [rising, single point] | 
10 | CN(c1ccc(C(=O)NCc2ccncc2)cc1)S(C)(=O)=O | 25.1 µM [rising, single point] | 22.4 µM [rising, single point]
11 | CC1(C)SC(=S)N(NC(=O)Nc2cccc3ccccc23)C1N(O)C(=O)Nc1ccccc1 (centres undefined) | 20 µM [rising, single point] | 11.2 µM [rising, single point]
12 | O=C(NCc1ccccn1)c1ccc(-c2ccccc2)cc1 | 1.26 µM [falling, partial curve, poor fit] | 
13 | COc1ccc(C(=O)NCC(=O)OCC(=O)Nc2sccc2C#N)cc1OC | 0.0112 µM [falling, full curve] | 
14 | Brc1ccc(CSc2nnc(Cc3c[nH]c4ccccc34)o2)cc1 | 15.8 µM [rising, single point] | 
15 | CC1Cc2ccccc2N1C(=O)Cn1nnc(-c2ccccc2NC(=O)C2CCC2)n1 (centres undefined) | 35.5 µM [rising, single point] | 
16 | COc1cc(C(=O)Sc2ccc(Cl)cc2)cc(OC)c1OC | 17.8 µM [falling, partial curve] | 14.1 µM [falling, partial curve]
17 | CCOC(=O)C(=O)Nc1sc(C(=O)N(CC)CC)c(C)c1C#N | 35.5 µM [falling, single point] | 
18 | Cc1cc(-c2csc(NC(=O)c3ccc(C#N)cc3)n2)c(C)n1Cc1ccco1 | 31.6 µM [rising, single point] | 22.4 µM [rising, single point]
19 | CC1=C(c2ccc(C)c(C)c2)S(=O)(=O)N=C1N1CCC(C(=O)NCc2ccc(C)o2)CC1 | 0.00891 µM [falling, full curve] | 0.00282 µM [falling, full curve, poor fit]
20 | Cc1c(C(=O)Nc2cnccn2)oc2ccccc12 | 10 µM [rising, partial curve, poor fit] | 
21 | CCOc1ccc(-c2nc(C#N)c(NCCCOC)o2)cc1 | 35.5 µM [rising, single point] | 
22 | O=S(=O)(Cc1cc(-c2ccccc2)no1)c1ccccc1 | 0.00562 µM [falling, full curve, poor fit] | 
23 | CC(=O)c1cccc(NC(=O)CCCOc2ccc(C)cc2)c1 |  | 12.6 µM [rising, single point]
24 | COc1ccccc1-c1cncnc1N(C)Cc1ccco1 | 25.1 µM [falling, single point] | 
25 | Cc1c(NC(=O)/C(C#N)=C/c2ccc(-c3cc(Cl)ccc3Cl)o2)c(=O)n(-c2ccccc2)n1C | 11.2 µM [falling, partial curve, poor fit] | 17.8 µM [falling, single point]
26 | CSCc1ccc(C(=O)NCc2ccc(F)cc2)cc1 | 0.0224 µM [rising, full curve] | 
27 | Cc1ccc(SCCC(=O)N2CCC(C)CC2)cc1 | 12.6 µM [rising, partial curve] | 35.5 µM [rising, single point]

Row | SMILES | AC50 [1] | AC50 [2]
28 | Cc1cccc(N=Nc2ccc(O)c3ncccc23)c1 | 14.1 µM [rising, partial curve] | 
29 | Cn1c(=O)oc2cc(S(=O)(=O)N3CCCC(C(=O)NCC4COc5ccccc5O4)C3)ccc21 (centres undefined) | 35.5 µM [rising, single point] | 
30 | c1csc(-c2noc(COc3ccc4c(c3)CCCC4)n2)c1 | 31.6 µM [rising, single point] | 
31 | COc1cccc(C2C(C(=O)Nc3ccc(C)cc3C)=C(C)Nc3c(C(=O)Nc4cccc(C)c4)cnn32)c1OC (centres undefined) |  | 0.00447 µM [rising, full curve, poor fit]
32 | Cc1nnc(NS(=O)(=O)c2ccc(N)cc2)s1 | 4.47 µM [falling, full curve, poor fit] | 0.000794 µM [falling, full curve, poor fit]
33 | CCOc1ccccc1NC(=S)N1CCC(NC(=O)NC23CC4CC(CC(C4)C2)C3)CC1 | 31.6 µM [rising, single point] | 15.8 µM [rising, single point]
34 | CCCNC(=O)C1CCC(Cn2c(=O)c3sccc3n(CC(=O)N3CCC(C)CC3)c2=O)CC1 (centres undefined) | 0.0251 µM [falling, full curve, poor fit] | 
35 | CC(Sc1nc(-c2ccc(F)cc2)cs1)C(=O)N1c2ccccc2CC1C (centres undefined) | 22.4 µM [rising, single point] | 
36 | FC(F)Oc1ccc(NC(=S)NCc2nc3ccccc3[nH]2)cc1 |  | 0.00891 µM [falling, full curve, poor fit]
37 | CCN1CCN(c2cc3c(cc2F)c(=O)c(C(=O)O)cn3C2CC2)CC1 | 708 nM [rising, full curve] and 8.91 µM [rising, partial curve] | 
38 | CCOC(=O)CSC1=C(C#N)C(c2ccccc2OCC)C(C#N)C(=O)N1 (centres undefined) | 10 µM [rising, partial curve] | 10 µM [rising, partial curve]
39 | CCN(CC)c1ccc(N=Cc2c(C)[nH]c3ccccc23)cc1 | 12.6 µM [rising, partial curve] | 10 µM [rising, partial curve, poor fit]
40 | C[n+]1ccccc1N1CCN(c2ccccc2Cl)CC1 | 22.4 µM [rising, partial curve] | 20 µM [rising, partial curve, poor fit]
41 | COc1cccc(/C=N/NC(=O)CSc2ccccc2C)c1O | 28.2 µM [rising, single point] | 35.5 µM [rising, single point]
42 | CN(CC(=O)Nc1cccc(C(F)(F)F)c1)S(=O)(=O)c1ccc2[nH]c3c(c2c1)CCCC3 |  | 6.31 µM [falling, partial curve, poor fit]
43 | COc1ccc(Cl)cc1NC(=O)CSc1nccn1Cc1ccco1 |  | 11.2 µM [rising, partial curve]
44 | CC(=O)Nc1cccc(C(=O)/C=C/c2ccc(/C=C/C(=O)c3cccc(NC(C)=O)c3)cc2)c1 | 35.5 µM [falling, single point] | 35.5 µM [falling, single point]
45 | CCN(CC)S(=O)(=O)c1cc(NC(=O)C(C)OC(=O)c2[nH]c(C)c(C(C)=O)c2C)ccc1C (centres undefined) | 11.2 µM [rising, single point] | 
46 | CC(C)Oc1cccc(C(=O)NC(=S)Nc2ccc3c4c(cccc24)CC3)c1 | 14.1 µM [rising, single point] | 
47 | O=C1NC(=Nc2cccc(Cl)c2)SC1Cc1cccc(Cl)c1Cl (centres undefined) | 25.1 µM [falling, single point] | 22.4 µM [falling, single point]
48 | O=C(CN(CCCN1CCOCC1)C(=O)Cn1nnc(-c2ccc(F)cc2)n1)NC1CCCCC1 | 0.1 µM [falling, full curve, poor fit] | 
49 | CC(=O)Nc1ccc(Sc2ncnc3scc(-c4ccccc4)c23)cc1 | 20 µM [rising, single point] | 
50 | CCN1C(=O)c2cccc3c(S(=O)(=O)Nc4nc(C)cs4)ccc1c23 | 3.55 µM [rising, single point] | 31.6 µM [falling, single point]
51 | Cc1onc(-c2c(F)cccc2Cl)c1C(=O)OCC(=O)Nc1c(C)n(C)n(-c2ccccc2)c1=O | 31.6 µM [rising, single point] | 
52 | CC(C)N1C(=O)/C(=C\c2nc3ccccc3c(=O)[nH]2)c2ccccc21 | 0.0355 µM [falling, full curve, poor fit] | 10 µM [rising, partial curve, poor fit]
53 | COc1cc(/C=C2\C(=O)NN(c3ccccc3)C2=O)ccc1OCC(N)=O | 0.631 µM [falling, full curve, poor fit] | 
54 | COc1ccc(C(=O)Nc2ccc3nc(SCC(=O)N4CCCc5ccccc54)sc3c2)cc1 | 0.0224 µM [falling, full curve, poor fit] | 17.8 µM [falling, partial curve, poor fit]
